Measurements taken from publication PMC7334220, “Diamond Blackfan anemia is mediated by hyperactive Nemo-like kinase” (Nature Communications, 2020).
No constants are given. Whether binding was seen depends on the method and setting. In cells and extracts the contact can be indirect. Some binding calls cover weakened binding; strength is not graded here. Sequences can lack the tags named with a protein.

Biological target: Nemo-like kinase (NLK), CFP- or YFP-tagged (UniProt Q9UBE8)
Experiment: FRET or BRET; CFP-NLK and YFP-NLK transduced together in cord blood CD34+ progenitors (shLuc or shRPS19; with or without Nutlin-3) or bone marrow mononuclear cells; FRET read by flow cytometry (405 nm excitation, 529/24 filter)

binding: binds
B1: Nemo-like kinase (NLK), CFP- or YFP-tagged (enzyme, UniProt Q9UBE8 1-527)
chain: MSLCGARANAKMMAAYNGGTSAAAAGHHHHHHHHLPHLPPPHLHHHHHPQHHLHPGSAAAVHPVQQHTSSAAAAAAAAAAAAAMLNPGQQQPYFPSPAPGQAPGPAAAAPAQVQAAAAATVKAHHHQHSHHPQQQLDIEPDRPIGYGAFGVVWSVTDPRDGKRVALKKMPNVFQNLVSCKRVFRELKMLCFFKHDNVLSALDILQPPHIDYFEEIYVVTELMQSDLHKIIVSPQPLSSDHVKVFLYQILRGLKYLHSAGILHRDIKPGNLLVNSNCVLKICDFGLARVEELDESRHMTQEVVTQYYRAPEILMGSRHYSNAIDIWSVGCIFAELLGRRILFQAQSPIQQLDLITDLLGTPSLEAMRTACEGAKAHILRGPHKQPSLPVLYTLSSQATHEAVHLLCRMLVFDPSKRISAKDALAHPYLDEGRLRYHTCMCKCCFSTSTGRVYTSDFEPVTNPKFDDTFEKNLSSVRQVKEIIHQFILEQQKGNRVPLCINPQSAAFKSFISSTVAQPSEMPPSPLVWE
